Where two headings read alike, the source gives them in different places. These are yes or no findings as the source states them, for the method shown. Binding seen in cells or lysates may run through a third protein. These calls come from enrichment with a bait or labelling near it, and not all partners need be listed.
B1: VHA-a3 (protein, UniProt Q8W4S4 1-821)
chain: MAESGGGGGCCPPMDLMRSETMQLVQLIVPMESAHLTVSYLGDLGLVQFKDLNSEKSPFQRTYAAQIKRCGEMARKIRFFRDQMSKAGVPAKEMQGKENDIDLDDVEVKLGELEAELVEINANNDKLQRSYNELMEYKLVLQKAGEFFSSAHRSAADQQRETESQQAGEDLLESPLLQEEKSIDSTKQVKLGFLTGLVPREKSMVFERILFRATRGNIFIRQTVIEEPVIDPNSGEKAEKNVFVVFYSGERAKSKILKICEAFGANRYPFSEDLGRQAQMITEVSGRLSELKTTIDAGLGQRNILLQTIGDKFELWNLKVRKEKAIYHTLNMLSLDVTKKCLVAEGWSPVFASREIQDALQRAAVDSNSQVGSIFQVLRTKESPPTYFRTNKFTSAIQEIVDAYGVAKYQEANPGVFTIVTFPFLFAVMFGDWGHGICILLATMYLILKEKKLASQKLGDIMEMAFGGRYVILMMSLFSIYTGLIYNEFFSIPFPLFAPSAYDCRDVSCSEATTIGLIKVRDTYPFGLDPVWHGSRSELPFLNSLKMKMSILLGVSQMNLGIIMSYFNARFFKSSVNIWFQFIPQMIFLNSLFGYLSVLIIIKWCTGSQADLYHVMIYMFLSPMDELGENQLFPHQKTLQLVLLFLALVSVPCMLLPKPFILKKQHEARHQGQAYAPLDETDESLHVETNGGGSHGHEEFEFSEIFVHQLIHTIEFVLGAVSNTASYLRLWALSLAHSELSSVFYEKVLLLAWGYNNPLILIVGVLVFIFATVGVLLVMETLSAFLHALRLHWVEFQNKFYEGDGYKFAPFTFIFTANEDE

Experiments:
[1] = biological target: T1, TurboID–ATG8A (A. thaliana) (UniProt Q8LEM4); experiment: proximity labelling; TurboID–ATG8A line, biotin proximity-labelling proteomics under Torin (4 h, 9 µM) and ES20-1 (8 h, 100 µM) treatments; TurboID alone as negative control; n = 3 replicates
T1 sequence: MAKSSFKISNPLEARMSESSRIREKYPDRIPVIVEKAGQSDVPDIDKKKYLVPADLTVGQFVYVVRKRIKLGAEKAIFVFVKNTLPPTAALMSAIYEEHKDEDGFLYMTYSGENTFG

[2] = biological target: T1, TurboID–ATG8A (A. thaliana); experiment: as above; remark: listed apart in the source

Molecule | binding [1] | binding [2]
TBC/RabGAP1 | binds | 
VHA-d | binds | 
B1 |  | binds
